In patent US7255988:
These are yes or no findings as the source states them, for the method shown. Some entries that bind do so weakly or less than the wild type.

Molecular target: T1, cathepsin G (Calbiochem) (UniProt P08311)
T1 sequence (looked up): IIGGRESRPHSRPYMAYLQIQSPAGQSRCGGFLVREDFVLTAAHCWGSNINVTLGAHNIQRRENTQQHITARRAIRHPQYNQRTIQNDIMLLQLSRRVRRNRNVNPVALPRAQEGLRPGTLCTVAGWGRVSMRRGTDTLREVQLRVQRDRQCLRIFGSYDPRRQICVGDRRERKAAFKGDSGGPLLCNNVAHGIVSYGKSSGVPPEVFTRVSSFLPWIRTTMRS
Assay: plate assay: cathepsin G coated on microtiter plate captures active ACT; detected with anti-ACT antibody, absorbance at 490 nm

B1: alpha 1-antichymotrypsin (ACT), human (protein)
chain: HPNSPLDEENLTQENQDRGTHVDLGLASANVDFAFSLYKQLVLKAPDKNVIFSPLSISTALAFLSLGAHNTTLTEILKGLKFNLTETSEAEIHQSFQHLLRTLNQSSDELQLSMGNAMFVKEQLSLLDRFTEDAKRLYGSEAFATDFQDSAAAKKLINDYVKNGTRGKITDLIKDLDSQTMMVLVNYIFFKAKWEMPFDPQDTHQSRFYLSKKKWVMVPMMSLHHLTIPYFRDEELSCTVVELKYTGNASALFILPDQDKMEEVEAMLLPETLKRWRDSLEFREIGELYLPKFSISRDYNLNDILLQLGIEEAFTSKADLSGITGARNLAVSQVVHKAVLDVFEEGTEASAATAVKITLLSALVETRTIVRFNRPFLMIIVPTDTQNIFFMSKVTNPKQA
- binding: binds
